Reference: PMC11442847
No constants are given. Whether binding was seen depends on the method and setting. In cells and extracts the contact can be indirect. Binding can be weak; no strength is given.

Assays:
Experiment in all cases: cross-linking; in cellulo cross-linking with mass spectrometry (XL-MS): three million PEO-4, SKOV-3 or T1074 cells in 200 µL DPBS, 2 mM DSSO, 37 °C, 1 h; subcellular fractionation, FASP digestion (trypsin/Lys-C, chymotrypsin), nanoLC-MS/MS, XlinkX in Proteome Discoverer
[1] = biological target: T1, POLD3 (human (endogenous in T1074 and PEO-4)) (UniProt Q15054)
T1 sequence: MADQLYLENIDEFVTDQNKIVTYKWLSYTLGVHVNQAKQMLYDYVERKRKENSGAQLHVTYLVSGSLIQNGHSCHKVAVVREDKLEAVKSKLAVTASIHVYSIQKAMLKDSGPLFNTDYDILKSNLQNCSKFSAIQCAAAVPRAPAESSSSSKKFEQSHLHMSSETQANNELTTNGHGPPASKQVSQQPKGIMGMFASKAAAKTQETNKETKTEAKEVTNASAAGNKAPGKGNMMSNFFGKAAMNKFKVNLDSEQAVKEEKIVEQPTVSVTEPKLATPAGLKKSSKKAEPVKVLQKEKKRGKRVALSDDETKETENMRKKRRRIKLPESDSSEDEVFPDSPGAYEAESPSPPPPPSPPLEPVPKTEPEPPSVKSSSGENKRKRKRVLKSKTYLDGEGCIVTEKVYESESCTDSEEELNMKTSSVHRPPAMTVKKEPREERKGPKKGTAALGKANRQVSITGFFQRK

[2] = biological target: T2, TMEM260 (human (endogenous in T1074)) (UniProt Q9NX78)
T2 sequence: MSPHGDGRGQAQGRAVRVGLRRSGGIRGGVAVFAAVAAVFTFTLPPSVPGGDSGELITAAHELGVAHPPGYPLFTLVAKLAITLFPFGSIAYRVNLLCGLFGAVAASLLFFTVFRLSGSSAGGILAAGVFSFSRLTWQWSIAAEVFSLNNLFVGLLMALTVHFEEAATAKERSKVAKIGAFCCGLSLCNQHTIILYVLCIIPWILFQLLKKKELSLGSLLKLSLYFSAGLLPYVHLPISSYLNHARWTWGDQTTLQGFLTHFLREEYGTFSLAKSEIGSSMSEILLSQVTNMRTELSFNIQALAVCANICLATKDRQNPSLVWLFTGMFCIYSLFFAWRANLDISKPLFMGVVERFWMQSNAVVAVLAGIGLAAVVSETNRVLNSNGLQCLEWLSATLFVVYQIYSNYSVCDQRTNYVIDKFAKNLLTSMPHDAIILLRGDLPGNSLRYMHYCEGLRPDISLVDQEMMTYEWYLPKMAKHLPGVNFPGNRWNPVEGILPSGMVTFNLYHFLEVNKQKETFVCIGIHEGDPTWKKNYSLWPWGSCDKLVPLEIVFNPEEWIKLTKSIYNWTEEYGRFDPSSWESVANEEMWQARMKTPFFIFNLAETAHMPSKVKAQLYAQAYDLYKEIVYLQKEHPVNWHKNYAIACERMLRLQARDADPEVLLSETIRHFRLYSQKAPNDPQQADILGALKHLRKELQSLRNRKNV

[3] = biological target: T3, CNNM3 (human (endogenous in SKOV-3)) (UniProt Q8NE01)
T3 sequence: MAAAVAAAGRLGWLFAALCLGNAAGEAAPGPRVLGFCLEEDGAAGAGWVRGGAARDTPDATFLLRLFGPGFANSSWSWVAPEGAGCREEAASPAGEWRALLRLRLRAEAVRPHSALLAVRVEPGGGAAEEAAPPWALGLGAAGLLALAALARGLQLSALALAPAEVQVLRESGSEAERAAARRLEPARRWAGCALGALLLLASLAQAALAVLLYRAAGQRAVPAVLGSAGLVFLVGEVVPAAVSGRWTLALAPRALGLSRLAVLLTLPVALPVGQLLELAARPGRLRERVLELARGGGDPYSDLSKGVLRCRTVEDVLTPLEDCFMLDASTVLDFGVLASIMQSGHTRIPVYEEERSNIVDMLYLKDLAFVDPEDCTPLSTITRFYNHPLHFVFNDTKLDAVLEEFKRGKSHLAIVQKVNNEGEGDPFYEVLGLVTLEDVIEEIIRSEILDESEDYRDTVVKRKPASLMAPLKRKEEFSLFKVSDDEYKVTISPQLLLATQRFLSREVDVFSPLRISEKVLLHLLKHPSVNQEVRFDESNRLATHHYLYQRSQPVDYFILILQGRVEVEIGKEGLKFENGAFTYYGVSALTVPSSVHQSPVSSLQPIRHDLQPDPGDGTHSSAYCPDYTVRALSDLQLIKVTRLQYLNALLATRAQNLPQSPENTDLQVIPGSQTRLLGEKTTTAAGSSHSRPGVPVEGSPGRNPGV

In the case of “AltProt IP_183088 (human (endogenous in T1074 and PEO-4))”, the binding [1] is reported as “binds”.
For “AltProt IP_292259 (human (endogenous in T1074))”, the binding [2] was “binds”.
“AltProt IP_118499 (human (endogenous in SKOV-3))” was tested, and the binding [3] was “binds”.
